# Data reported in PubChem BioAssay AID1347423 (Functional Genomics Laboratory (NCATS/FGL), 2020).
# In all, about 52,000 sequences went through this assay and about 210 (0.4%) were called active.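 How the source made its calls: active means gene whose silencing raises cell survival under the drug, median off-target-corrected z-score across its silencing RNAs 2 or more; inactive means the rest.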 The list shows a part of the results.
# Test: Resistance to Poly (ADP-Ribose) Polymerase inhibitor: Gene Identification via Genome-wide siRNA Screen
# Settings: mouse BRCA2 R2336H ES cells, olaparib, CellTiter-Glo viability; hits give high values
# Procedure, shortened: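 Genome-wide siRNA screen (3 siRNAs/gene, 20 nM) in mouse ES cells carrying hypomorphic BRCA2 R2336H; olaparib 500 nM added 48 h post-transfection, CellTiter-Glo viability 72 h later. Normalized to plate-median negative control; MAD z-scores, gene median, seed-adjusted.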
row,Sequence,z-score
1,GGCCAUUUCGAACAUGGUATT against Acacb,inactive: 0.351
2,CCAUCAUCGCUCUGUCACATT against Olfr1391,inactive: -2.15
3,GCGACAAUUAAGUAUACUUTT against Gria2,inactive: -0.794
4,CGUGAAUCUGCACCACGUUTT against BC044804,inactive: 1.44
5,GGUUUUAUGAGAAAGCAGATT against 4930415J21Rik,inactive: 0.261
6,GGACUACCAGUUUUACAUCTT against Ssr1,inactive: -0.149
7,CCAGAUUGUGUUCACGAUGTT against Rasgrf2,inactive: 0.857
8,CGAUCACCUUAGUAAAUACTT against 0610042I15Rik,inactive: -0.644
9,CGAGAUCGAGUACUCAACUTT against Vps39,inactive: -2.5
10,GGUGAACUUGAGGUCACACTT against Angpt4,inactive: -0.562
11,GCUUAGUGGUUCUUAUUUGTT against Olfr893,inactive: 1.19
12,GCAUCGACAUCCACUUGAATT against Kif9,inactive: 0.207
13,GGCUAAGAGCCACCUAGAGTT against 1810023B24Rik,inactive: 3.23
14,GGUUCACUACAACAUUGGCTT against 4930403J22Rik,inactive: 0.33
15,GGGUGAUUUCUGGACUUGGTT against Centd2,inactive: 1.49
16,GGCCAUCGAAACUUUCUCGTT against Igf2bp1,inactive: 0.151
17,CGGCUUACGCAUGUCUAUGTT against Polr2a,inactive: -3.28
18,GCUCAGUCAUGUGACCGCATT against Fbxl18,inactive: 0.334
19,CCGUCAUCUACACCUAUUUTT against Olfr525,inactive: -1.47
20,GGAGUGAAUAUUGAAAAUCTT against 1700030B21Rik,inactive: -0.131
21,GCAUUCAACUCAGAUCUCUTT against D430038H04Rik,inactive: 1.33
22,GGAUUGUCCUUGAUGGCUGTT against Plek2,inactive: 0.639
23,GCGUAUUUCCUUUCGGAGUTT against Sec6l1,inactive: 0.218
24,GGGUCUUGGAUAUGUGGUUTT against Olfr1337,inactive: 0.172
25,GCGUGGAGUGGGAUAAAGATT against Cant1,inactive: -1.04
26,GCCUAUCAGUAUCAUAGUUTT against Dnajc10,inactive: -1.05

row,Sequence,z-score
1,GGGAUAGAAAUGAUUGAGGTT against Lhx8,inactive: -0.0399
2,CGAGCUUAUCAUCAGCGACTT against 1810060D16Rik,inactive: -0.967
3,GGGUCCUAAGACUAUUGAUTT against Eif4g1,inactive: -2.87
4,GGAGGAUAUCACAACAGAATT against Ftsj3,inactive: -1.9
5,GGUUCAGAGAACCUCUCACTT against C78409,inactive: 0.609
6,GGACAUGAACAGAGAAGUGTT against Zfp259,inactive: -1.24
7,GGGCUUGGUUUUGGACAUUTT against Fuk,inactive: 0.0113
8,CCUAGAAAGAGGACUCAGATT against 6330583M11Rik,inactive: -0.794
9,GGGAUUUCUAUAACCCGUUTT against Cldn3,inactive: -1.13
10,CCUAACGGUCAGAAGUUGATT against Ccng1,inactive: 0.555
11,GGUCUUCAGGGAGUUCUUCTT against Dnajb3,inactive: 1.03
12,GCCCAAGGUGAUCAUUAUUTT against Casp1,inactive: 0.869
13,GGAGAUCGACAAAUGCCUGTT against Gna13,inactive: -0.849
14,CCUCAUCUCAUAUGUUCAGTT against LOC209387,inactive: -1.24
15,GCUAACCAACUUAAUUCUATT against Angptl3,inactive: 1.31
16,CCUUCCUACCGGAGAAUGATT against Capn6,inactive: -0.848
17,GGAAUCAAGGACUUUAGUATT against Slc17a2,inactive: 0.795
18,CCUUAGGGAGAUAAGCUUUTT against Olfr604,inactive: 0.0992
19,GGAAGUAGGAUGAUGUUGGTT against Hmga1,inactive: -0.501
20,GCAAAUGGUUAUGCAUACATT against Clecsf6,inactive: -0.0391
21,GGCAUAAAAUCCAUCUAAUTT against Htr2a,inactive: 1.14
22,CCGGACAAUAUGCUUAUUUTT against Mastl,inactive: 0.982
23,GGUGUAUACUGUGAAAUCATT against Notch1,inactive: 1.76
24,CCACAUCAAGUUCACCCAGTT against Dctn1,inactive: -0.968
25,GCCGGAACAUCCAGAAUAGTT against Cpeb2,inactive: -2.64
26,AGUCUCCAAAUGCAUUUAATT against Serpinb9g,inactive: -2.48

row,Sequence,z-score
1,GCGGCGAGUGUAUAGAUUGTT against Zdhhc1,inactive: 0.77
2,GAGGAAGACACUUUUCCUGTT against 2410012H02Rik,inactive: 1.93
3,CGCAAAAUUCCGAUGGUGCTT against Pla2g12b,inactive: 0.962
4,CGCAAGAUACCAACACUUATT against A930017E24Rik,inactive: -0.29
5,GCUAUAUGUACCCUAGCCATT against E130307C13,inactive: -0.313
6,GGUUAAAGGCAACCCUGAATT against Cys1,inactive: -2.51
7,GGAAAACCCAGGUCAGAAUTT against Serpina9,inactive: -0.578
8,GAUCAAAGAGGAGGAGCCCTT against Insm2,inactive: -0.218
9,GGCUUGUACUACCAUGACATT against Rasgef1b,inactive: 0.6
10,GCAGCUAUCUCUCAUGGACTT against Olfr693,inactive: 0.317
11,GGAAGAACCUGCCAAGAUCTT against E030049G20Rik,inactive: -1.23
12,GCAUGCAUAAGCUUUUACCTT against 1700129C05Rik,inactive: 1.07
13,GAGUGAGCAAAUACCAGUUTT against 1700001J03Rik,inactive: 0.0356
14,GGGCUUGAUUGAAUCGGCUTT against D5Bwg0860e,inactive: 0.856
15,GCCUAGAAAGUCUGAAUAATT against Ifng,inactive: -1.03
16,GUGUUCAGCAAUUCCUACCTT against 1110017O22Rik,inactive: -0.348
17,GGGAACCAUGAACAAUGUGTT against 9430059P22Rik,inactive: 0.307
18,GGUGGUGUGCAAAAAGUACTT against Clic1,inactive: 1.15
19,CCUCUGACCUAGUUUUUCUTT against 9630020C08Rik,inactive: 0.397
20,GCUGACUCAUACGAAAAACTT against Pftk1,inactive: 0.352
21,GGCAUUCCAGUAAUUUUGGTT against Gpr23,inactive: 0.235
22,GGGUCACCGAUGGAAAUCUTT against Lta4h,inactive: 1.31
23,GCACAACACAAUCUAUAUGTT against Reps2,inactive: 0.405
24,GGUUCACCUGUCAAGUGGATT against Hfe,inactive: 0.781
25,GGCCAUAGAUAUUCAAGGUTT against Olfr218,inactive: 1.11
26,CCCGGAUUAUUAAUGAGUCTT against Trim50,inactive: -0.267

# Taken from the listing (32 entries):
row,Sequence,z-score
18,GCUCAGUCAUGUGACCGCATT against Fbxl18,inactive: 0.334
19,CCGUCAUCUACACCUAUUUTT against Olfr525,inactive: -1.47
20,GGAGUGAAUAUUGAAAAUCTT against 1700030B21Rik,inactive: -0.131
21,GCAUUCAACUCAGAUCUCUTT against D430038H04Rik,inactive: 1.33
22,GGAUUGUCCUUGAUGGCUGTT against Plek2,inactive: 0.639
23,GCGUAUUUCCUUUCGGAGUTT against Sec6l1,inactive: 0.218
24,GGGUCUUGGAUAUGUGGUUTT against Olfr1337,inactive: 0.172
25,GCGUGGAGUGGGAUAAAGATT against Cant1,inactive: -1.04
26,GCCUAUCAGUAUCAUAGUUTT against Dnajc10,inactive: -1.05
1,GGGAUAGAAAUGAUUGAGGTT against Lhx8,inactive: -0.0399
2,CGAGCUUAUCAUCAGCGACTT against 1810060D16Rik,inactive: -0.967
3,GGGUCCUAAGACUAUUGAUTT against Eif4g1,inactive: -2.87
4,GGAGGAUAUCACAACAGAATT against Ftsj3,inactive: -1.9
5,GGUUCAGAGAACCUCUCACTT against C78409,inactive: 0.609
6,GGACAUGAACAGAGAAGUGTT against Zfp259,inactive: -1.24
7,GGGCUUGGUUUUGGACAUUTT against Fuk,inactive: 0.0113
8,CCUAGAAAGAGGACUCAGATT against 6330583M11Rik,inactive: -0.794
9,GGGAUUUCUAUAACCCGUUTT against Cldn3,inactive: -1.13
10,CCUAACGGUCAGAAGUUGATT against Ccng1,inactive: 0.555
11,GGUCUUCAGGGAGUUCUUCTT against Dnajb3,inactive: 1.03
12,GCCCAAGGUGAUCAUUAUUTT against Casp1,inactive: 0.869
13,GGAGAUCGACAAAUGCCUGTT against Gna13,inactive: -0.849
14,CCUCAUCUCAUAUGUUCAGTT against LOC209387,inactive: -1.24
15,GCUAACCAACUUAAUUCUATT against Angptl3,inactive: 1.31
16,CCUUCCUACCGGAGAAUGATT against Capn6,inactive: -0.848
17,GGAAUCAAGGACUUUAGUATT against Slc17a2,inactive: 0.795
18,CCUUAGGGAGAUAAGCUUUTT against Olfr604,inactive: 0.0992
19,GGAAGUAGGAUGAUGUUGGTT against Hmga1,inactive: -0.501
20,GCAAAUGGUUAUGCAUACATT against Clecsf6,inactive: -0.0391
21,GGCAUAAAAUCCAUCUAAUTT against Htr2a,inactive: 1.14
22,CCGGACAAUAUGCUUAUUUTT against Mastl,inactive: 0.982
23,GGUGUAUACUGUGAAAUCATT against Notch1,inactive: 1.76

# Later entries:

row,Sequence,z-score
1,GGUGAACAACUGGUUUAUUTT against Mrg2,inactive: 0.395
2,GGUUUGGUGUCAGAUGUCATT against Olfr1182,inactive: -1.9
3,CCUUGUCAUUCCAUACAAUTT against Rgs5,inactive: 0.564
4,GGAGAACAUCACCAGUUACTT against BC042901,inactive: 0.45
5,GGAUGAUCUACACAUUGUGTT against Mrpl4,inactive: -0.532
6,GGCUCAUAUUUCCAUCAGATT against S100a17,inactive: 0.199
7,CCUGAUGCUUAGCAUAACGTT against Gm225,inactive: 1.43
8,GGAGAAAGGCCUUUUCUACTT against Olfr535,inactive: 0.694
9,GGAUCUAUGAAGCAAAAAATT against Rasa2,inactive: 1.17
10,GGGUUGGUAUAGCUUUCAGTT against 3000002G13Rik,inactive: 2.13
11,CGAGAUCACGAGAUCGGUUTT against Prdm4,inactive: 2.21
12,GGGCUGGAAAGAACUUUACTT against Fgf8,inactive: -1.26
13,GGAACUAAAUGUGAAACAUTT against BC037708,inactive: -0.799
14,CCAUUUGCUAUUGCUUAAATT against 2210404D11Rik,inactive: 0.589
15,GGGCUCUGUUGUAAUCAUGTT against Olfr366,inactive: 0.277
16,GGUGAAGCAUGAGUUUAAATT against Arl8,inactive: -2.37
17,GCUCUUGGGAUGGACGAUATT against Hmgcs1,inactive: 0.618
18,GGAAGGUGGCCUGAAGCUATT against Mlh1,inactive: -2.12
19,CCGACGGAUAGCUUGGAUGTT against Fgb,inactive: -1.42
20,GCGAAGAAUGCAUCCUAAUTT against Thsd2,inactive: 1.03
21,GGUCAGAGAUUAUUGAAUUTT against Ermap,inactive: -0.25
22,GGCAGAAGUAGAUUUACUCTT against BC052328,inactive: 0.833
23,GCAUGGCCCAUGAAGACUUTT against Pir,inactive: -0.247
24,GGCACACAUCAUGUCUAAATT against Plin,inactive: 0.802
25,CCAUCAGUUUCAUUAUUGGTT against Fpr-rs6,inactive: -0.37
26,CCUUCCAGCUUUAUUAGAGTT against Fzd1,inactive: -0.291
